The supplement of paper PMC10849652
Some of the results follow. Residues, ends and D or L forms follow the SMILES beside them. *: point of attachment. Cbz = O=C(OCc1ccccc1)*

Amino acid sequences for entries named in this document (tags omitted). A change or cut given only in a name is not applied to a line headed by its entry.
UniProt Q92734, whole entry, looked up: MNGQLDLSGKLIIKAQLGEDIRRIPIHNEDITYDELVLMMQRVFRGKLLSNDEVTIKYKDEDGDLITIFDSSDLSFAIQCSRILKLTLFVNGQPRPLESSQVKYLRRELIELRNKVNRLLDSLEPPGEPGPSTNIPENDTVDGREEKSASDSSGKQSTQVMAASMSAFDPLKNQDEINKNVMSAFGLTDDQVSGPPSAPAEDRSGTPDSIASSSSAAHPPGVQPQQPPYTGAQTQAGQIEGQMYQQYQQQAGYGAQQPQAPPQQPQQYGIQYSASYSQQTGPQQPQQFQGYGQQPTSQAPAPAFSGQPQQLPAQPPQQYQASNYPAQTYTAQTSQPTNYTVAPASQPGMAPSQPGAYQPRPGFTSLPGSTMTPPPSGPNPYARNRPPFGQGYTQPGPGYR
UniProt Q86XR7, whole entry, looked up: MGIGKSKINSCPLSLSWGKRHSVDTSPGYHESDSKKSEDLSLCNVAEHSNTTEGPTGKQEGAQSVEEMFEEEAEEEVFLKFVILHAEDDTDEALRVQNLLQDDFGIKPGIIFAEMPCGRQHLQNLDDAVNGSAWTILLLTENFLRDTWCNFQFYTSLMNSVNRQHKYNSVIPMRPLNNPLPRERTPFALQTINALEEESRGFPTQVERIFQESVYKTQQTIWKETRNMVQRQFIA
UniProt O75347: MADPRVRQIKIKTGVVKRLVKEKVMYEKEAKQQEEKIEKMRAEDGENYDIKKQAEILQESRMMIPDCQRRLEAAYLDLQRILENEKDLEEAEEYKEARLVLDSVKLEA
UniProt P02786, whole entry, looked up: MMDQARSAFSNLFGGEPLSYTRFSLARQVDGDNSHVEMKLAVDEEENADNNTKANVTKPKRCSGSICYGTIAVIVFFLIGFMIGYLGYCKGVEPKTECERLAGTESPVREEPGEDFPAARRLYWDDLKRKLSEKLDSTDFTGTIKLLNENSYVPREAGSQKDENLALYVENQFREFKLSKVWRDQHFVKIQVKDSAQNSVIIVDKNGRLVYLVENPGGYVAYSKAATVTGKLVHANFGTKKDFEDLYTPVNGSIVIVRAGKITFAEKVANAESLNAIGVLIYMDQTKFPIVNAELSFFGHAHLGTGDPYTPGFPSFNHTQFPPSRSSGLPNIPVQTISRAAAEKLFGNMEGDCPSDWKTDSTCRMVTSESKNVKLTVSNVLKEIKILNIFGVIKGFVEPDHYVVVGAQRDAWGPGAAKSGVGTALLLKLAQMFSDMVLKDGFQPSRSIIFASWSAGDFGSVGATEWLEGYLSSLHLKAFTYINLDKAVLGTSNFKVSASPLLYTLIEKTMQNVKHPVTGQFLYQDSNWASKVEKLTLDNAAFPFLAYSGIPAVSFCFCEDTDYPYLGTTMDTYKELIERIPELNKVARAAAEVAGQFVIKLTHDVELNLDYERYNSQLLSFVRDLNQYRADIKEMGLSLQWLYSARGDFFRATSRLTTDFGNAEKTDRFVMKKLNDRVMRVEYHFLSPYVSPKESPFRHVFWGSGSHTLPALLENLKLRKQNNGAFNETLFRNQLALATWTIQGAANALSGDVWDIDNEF
UniProt Q9H5Q4: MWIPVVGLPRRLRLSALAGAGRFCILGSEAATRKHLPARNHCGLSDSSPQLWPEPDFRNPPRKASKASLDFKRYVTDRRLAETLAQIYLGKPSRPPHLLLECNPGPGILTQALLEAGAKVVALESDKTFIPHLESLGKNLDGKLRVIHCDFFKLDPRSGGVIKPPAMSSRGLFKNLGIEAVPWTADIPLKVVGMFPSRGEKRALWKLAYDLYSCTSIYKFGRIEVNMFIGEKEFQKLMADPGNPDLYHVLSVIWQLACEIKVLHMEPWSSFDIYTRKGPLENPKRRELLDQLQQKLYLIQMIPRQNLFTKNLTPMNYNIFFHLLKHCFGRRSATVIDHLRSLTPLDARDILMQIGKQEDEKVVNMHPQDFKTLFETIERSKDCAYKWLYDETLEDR
UniProt Q9Y4P3: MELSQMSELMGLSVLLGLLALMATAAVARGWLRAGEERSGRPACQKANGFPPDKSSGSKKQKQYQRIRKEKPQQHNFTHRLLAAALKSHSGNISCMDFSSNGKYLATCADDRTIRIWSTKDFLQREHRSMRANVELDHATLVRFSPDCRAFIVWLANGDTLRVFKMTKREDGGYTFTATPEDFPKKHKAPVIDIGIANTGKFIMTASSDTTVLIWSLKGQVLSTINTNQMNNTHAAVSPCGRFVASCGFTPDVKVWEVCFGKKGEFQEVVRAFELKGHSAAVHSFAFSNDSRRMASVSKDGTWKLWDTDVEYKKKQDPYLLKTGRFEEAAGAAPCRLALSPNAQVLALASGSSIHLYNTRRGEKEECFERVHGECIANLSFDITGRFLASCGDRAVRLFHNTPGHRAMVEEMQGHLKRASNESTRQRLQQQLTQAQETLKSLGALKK
UniProt Q96J01: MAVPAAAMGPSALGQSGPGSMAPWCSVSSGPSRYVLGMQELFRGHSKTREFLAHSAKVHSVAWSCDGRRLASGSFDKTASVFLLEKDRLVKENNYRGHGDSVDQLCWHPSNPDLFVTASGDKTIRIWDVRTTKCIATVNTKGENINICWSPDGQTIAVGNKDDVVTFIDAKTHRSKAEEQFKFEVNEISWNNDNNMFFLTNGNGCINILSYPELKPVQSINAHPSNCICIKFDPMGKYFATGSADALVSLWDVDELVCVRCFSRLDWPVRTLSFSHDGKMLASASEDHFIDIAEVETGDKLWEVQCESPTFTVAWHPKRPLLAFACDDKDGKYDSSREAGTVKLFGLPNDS
UniProt Q96RS0: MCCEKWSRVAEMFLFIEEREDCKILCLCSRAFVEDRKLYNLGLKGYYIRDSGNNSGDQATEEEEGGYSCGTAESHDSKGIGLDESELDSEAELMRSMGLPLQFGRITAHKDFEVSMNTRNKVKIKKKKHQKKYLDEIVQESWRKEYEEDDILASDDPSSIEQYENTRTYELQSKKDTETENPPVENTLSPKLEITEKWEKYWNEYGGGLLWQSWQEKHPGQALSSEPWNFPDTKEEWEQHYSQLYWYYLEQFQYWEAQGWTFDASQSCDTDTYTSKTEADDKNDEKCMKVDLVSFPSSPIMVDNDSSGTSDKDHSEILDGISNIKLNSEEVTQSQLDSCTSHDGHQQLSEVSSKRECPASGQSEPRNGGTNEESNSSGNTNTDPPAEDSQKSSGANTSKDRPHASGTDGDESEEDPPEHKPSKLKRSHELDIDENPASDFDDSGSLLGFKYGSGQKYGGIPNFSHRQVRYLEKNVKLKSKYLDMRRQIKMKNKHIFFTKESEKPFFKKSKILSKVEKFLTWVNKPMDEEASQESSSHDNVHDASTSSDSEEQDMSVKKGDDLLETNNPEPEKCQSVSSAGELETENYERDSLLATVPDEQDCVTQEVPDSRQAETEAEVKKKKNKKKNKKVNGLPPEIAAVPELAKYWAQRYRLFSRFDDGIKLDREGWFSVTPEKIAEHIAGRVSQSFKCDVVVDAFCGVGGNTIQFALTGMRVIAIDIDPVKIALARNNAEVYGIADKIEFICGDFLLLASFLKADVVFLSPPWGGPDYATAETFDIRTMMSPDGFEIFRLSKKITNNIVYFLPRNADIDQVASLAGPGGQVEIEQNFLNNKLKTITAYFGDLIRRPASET
UniProt Q9BTF0: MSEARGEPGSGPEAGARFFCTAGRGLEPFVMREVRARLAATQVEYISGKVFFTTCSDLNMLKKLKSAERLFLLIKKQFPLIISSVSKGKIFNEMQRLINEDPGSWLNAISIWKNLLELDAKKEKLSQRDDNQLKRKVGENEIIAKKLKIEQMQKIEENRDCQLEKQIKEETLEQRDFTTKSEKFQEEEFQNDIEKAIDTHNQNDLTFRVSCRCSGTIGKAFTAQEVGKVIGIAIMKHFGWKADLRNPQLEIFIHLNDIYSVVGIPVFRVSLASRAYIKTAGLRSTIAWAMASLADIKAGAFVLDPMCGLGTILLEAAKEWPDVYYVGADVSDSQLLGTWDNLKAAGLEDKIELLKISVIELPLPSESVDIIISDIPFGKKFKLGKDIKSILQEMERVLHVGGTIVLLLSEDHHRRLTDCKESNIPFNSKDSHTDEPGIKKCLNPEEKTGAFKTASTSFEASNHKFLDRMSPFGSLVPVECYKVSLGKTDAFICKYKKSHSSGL
UniProt Q99595: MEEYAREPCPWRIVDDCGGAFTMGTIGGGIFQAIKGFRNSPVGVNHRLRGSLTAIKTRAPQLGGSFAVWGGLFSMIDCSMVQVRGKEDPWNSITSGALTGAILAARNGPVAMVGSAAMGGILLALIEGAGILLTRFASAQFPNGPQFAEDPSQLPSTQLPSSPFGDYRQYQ
UniProt P52888, whole entry, looked up: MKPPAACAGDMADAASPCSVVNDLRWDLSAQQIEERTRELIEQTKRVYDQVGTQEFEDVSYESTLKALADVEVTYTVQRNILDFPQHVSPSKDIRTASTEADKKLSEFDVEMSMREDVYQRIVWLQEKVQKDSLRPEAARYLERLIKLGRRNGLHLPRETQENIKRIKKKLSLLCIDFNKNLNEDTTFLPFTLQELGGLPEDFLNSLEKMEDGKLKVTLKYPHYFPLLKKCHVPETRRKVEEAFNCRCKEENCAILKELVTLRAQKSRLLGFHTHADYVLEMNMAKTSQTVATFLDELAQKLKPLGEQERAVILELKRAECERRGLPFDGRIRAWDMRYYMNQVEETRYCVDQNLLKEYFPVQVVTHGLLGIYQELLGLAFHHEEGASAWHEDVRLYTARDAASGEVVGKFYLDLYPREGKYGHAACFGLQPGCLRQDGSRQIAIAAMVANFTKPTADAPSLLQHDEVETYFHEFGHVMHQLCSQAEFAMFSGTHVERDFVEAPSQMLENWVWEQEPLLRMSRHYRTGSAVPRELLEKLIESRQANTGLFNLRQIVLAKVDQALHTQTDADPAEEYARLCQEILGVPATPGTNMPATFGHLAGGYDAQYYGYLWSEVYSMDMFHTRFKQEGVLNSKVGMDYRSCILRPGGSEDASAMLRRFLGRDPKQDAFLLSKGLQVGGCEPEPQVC
UniProt Q13428: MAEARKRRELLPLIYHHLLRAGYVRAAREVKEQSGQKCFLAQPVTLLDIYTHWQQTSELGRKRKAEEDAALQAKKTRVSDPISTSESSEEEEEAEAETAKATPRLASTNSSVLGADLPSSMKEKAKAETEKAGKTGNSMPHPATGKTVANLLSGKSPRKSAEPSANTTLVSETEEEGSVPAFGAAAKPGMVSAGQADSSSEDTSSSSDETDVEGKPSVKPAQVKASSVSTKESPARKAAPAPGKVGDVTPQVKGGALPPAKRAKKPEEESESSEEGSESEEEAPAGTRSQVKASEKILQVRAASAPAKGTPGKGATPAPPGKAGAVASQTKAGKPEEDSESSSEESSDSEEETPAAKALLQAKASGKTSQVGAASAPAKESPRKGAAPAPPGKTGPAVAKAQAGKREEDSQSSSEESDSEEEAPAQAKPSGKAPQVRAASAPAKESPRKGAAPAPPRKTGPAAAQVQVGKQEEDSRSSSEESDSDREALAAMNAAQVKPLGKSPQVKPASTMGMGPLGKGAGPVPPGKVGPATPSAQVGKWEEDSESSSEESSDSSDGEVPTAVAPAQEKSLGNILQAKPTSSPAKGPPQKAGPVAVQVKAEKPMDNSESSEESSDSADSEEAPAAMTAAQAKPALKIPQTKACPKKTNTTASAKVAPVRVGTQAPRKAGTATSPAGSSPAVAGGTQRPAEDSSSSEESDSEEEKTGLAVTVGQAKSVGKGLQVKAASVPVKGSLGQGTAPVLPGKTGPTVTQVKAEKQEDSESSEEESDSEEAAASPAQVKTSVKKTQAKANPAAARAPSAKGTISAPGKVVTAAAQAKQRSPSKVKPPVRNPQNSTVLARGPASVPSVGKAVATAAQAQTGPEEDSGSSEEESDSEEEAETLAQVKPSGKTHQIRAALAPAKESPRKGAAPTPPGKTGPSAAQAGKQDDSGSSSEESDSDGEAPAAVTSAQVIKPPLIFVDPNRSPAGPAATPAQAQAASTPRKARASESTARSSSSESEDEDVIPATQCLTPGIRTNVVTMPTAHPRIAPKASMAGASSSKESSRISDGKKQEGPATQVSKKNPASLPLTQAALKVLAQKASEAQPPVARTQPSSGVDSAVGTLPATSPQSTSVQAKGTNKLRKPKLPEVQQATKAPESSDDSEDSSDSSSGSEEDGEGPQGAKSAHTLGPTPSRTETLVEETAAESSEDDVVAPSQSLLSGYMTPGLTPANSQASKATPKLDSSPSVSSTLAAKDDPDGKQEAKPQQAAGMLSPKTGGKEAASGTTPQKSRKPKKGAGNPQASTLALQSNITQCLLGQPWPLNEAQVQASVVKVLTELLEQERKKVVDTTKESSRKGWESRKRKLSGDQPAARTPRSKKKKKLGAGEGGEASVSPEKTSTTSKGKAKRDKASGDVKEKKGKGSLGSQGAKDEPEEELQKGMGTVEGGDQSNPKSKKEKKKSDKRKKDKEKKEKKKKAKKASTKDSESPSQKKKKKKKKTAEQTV

Tests used:
Test in all cases: log2 fold change, soluble protein after heating vs DMSO (PISA); higher = thermal stabilisation; K562 cells, 10 uM, 30 min; active = over 0.2 and 3.5 SD of the protein, either way, in both replicates (recomputed)
[1] = compound: C#Cc1cccc(Nc2ncnc3cc(OCCOC)c(OCCOC)cc23)c1 [erlotinib]
Outline: (§1)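 Quantification of soluble protein used TMTpro 16plex LC-MS/MS, with channel sums equalised. Samples were the supernatant after 21,000xg for 90 min of pooled aliquots from K562 cells (2×10^6 cells/mL) treated with 10 μM compound for 30 min, heated for 3 min over 48°C-58°C, and extracted in PBS with 0.5% NP-40 at 4°C. Values, from duplicates, describe thermal stability against control samples on a log2 fold-change scale.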

[2] = compound: C/C(=N\NC(=O)C1=CC(=CC=C1)S(=O)(=O)N2CCOCC2)/C3=C(C=CC(=C3)Cl)O
Outline: as §1

[3] = compound: C1=CC(=C(C=C1Cl)C2=NC3=NC=CN=C3C(=N2)NC4=CC=NC=C4)F
Outline: as §1

[4] = compound: C1=CC(=CC=C1C2=NC3=C(N2)C=C(C=C3)C(=O)N)OC4=CC=C(C=C4)Cl
Outline: as §1

[5] = compound: C1=CC2=C(C=CC(=C2)/C=C\3/C(=O)NC(=NCC4=CC=CS4)S3)N=C1
Outline: as §1

[6] = compound: C1=CC2=NC=CN=C2C=C1/C=C/3\C(=O)NC(=O)S3
Outline: as §1

[7] = compound: C1=CC=C(C=C1)C2=NC(=C(N2)C3=CC=NC=C3)C4=CC(=C(C=C4)Cl)O
Outline: as §1

[8] = compound: C1=CC=C2C(=C1)C3=NNC4=CC=CC(=C43)C2=O
Outline: as §1

[9] = compound: C1CCN(C1)C(=O)NC2=CC=CC(=C2)NC3=NC=C(C(=N3)NCCC4=CN=CN4)Br
Outline: as §1

[10] = compound: C1CN(CCC1(CC2=CC=C(C=C2)Cl)N)C3=NC=NC4=C3C=CN4
Outline: as §1

[11] = compound: C1COCCN1CCN2C3=CC=CC=C3N=C2NC(=O)C4=CC(=CC=C4)[N+](=O)[O-] [IRAK-1-4 Inhibitor I]
Outline: as §1

[12] = compound: C=CC(=O)N1CCC[C@@H](n2nc(-c3ccc(Oc4ccccc4)cc3)c3c(N)ncnc32)C1 [ibrutinib]
Outline: as §1

[13] = compound: CC(=O)c1cnc2ccc(-c3cc(Cl)c(O)c(Cl)c3)nc2c1N[C@H]1CC[C@H](CN(C)C)CC1
Outline: as §1

[14] = compound: CC(C)(C)Cn1c(N)nc2ccc(-c3[nH]c(C(C)(C)C)nc3-c3ccc(F)cc3)nc21 [ralimetinib]
Outline: as §1

[15] = compound: CC(C)(O)CC(=O)NCCn1ccc2ncnc(Nc3ccc(Oc4cccc(C(F)(F)F)c4)c(Cl)c3)c21
Outline: as §1

[16] = compound: CC(C)C1=C2N=C(C=C(N2N=C1)NCC3=CC=CC=C3)NCCCCCCN
Outline: as §1

[17] = compound: CC(C)C[C@@H](C=O)NC(=O)[C@H](CC(C)C)NC(=O)[C@H](CC(C)C)NC(=O)OCc1ccccc1
Outline: as §1

[18] = compound: CC(C)N(C[C@H]1O[C@@H](n2cnc3c(N)ncnc32)[C@H](O)[C@@H]1O)[C@H]1C[C@@H](CCc2nc3cc(C(C)(C)C)ccc3[nH]2)C1 [pinometostat]
Outline: as §1

[19] = compound: CC1=C(C(CC(=O)N1)C2=CC=C(C=C2)C(F)(F)F)C(=O)NC3=C(C=C4C(=C3)C=NN4)F
Outline: as §1

[20] = compound: CC1=C(C2=C(C=C1)C(=O)C3=CC=CC=C3N2CCCN)C
Outline: as §1

| Target | log2 fold change [1] | log2 fold change [2] | log2 fold change [3] | log2 fold change [4] | log2 fold change [5] | log2 fold change [6] | log2 fold change [7] | log2 fold change [8] | log2 fold change [9] | log2 fold change [10] | log2 fold change [11] | log2 fold change [12] | log2 fold change [13] | log2 fold change [14] | log2 fold change [15] | log2 fold change [16] | log2 fold change [17] | log2 fold change [18] | log2 fold change [19] | log2 fold change [20] |
| --- | --- | --- | --- | --- | --- | --- | --- | --- | --- | --- | --- | --- | --- | --- | --- | --- | --- | --- | --- | --- |
| TFG (UniProt Q92734) | inactive: -0.02 | inactive: -0.008 | inactive: 0.07 | inactive: 0.015 | inactive: -0.048 | inactive: 0.019 | inactive: -0.015 | inactive: 0.025 | inactive: -0.013 | inactive: -0.02 | inactive: 0.045 | inactive: 0.032 | inactive: 0.009 | inactive: -0.014 | inactive: 0.027 | inactive: 0.072 | inactive: -0.004 | inactive: -0.039 | inactive: 0.003 | inactive: -0.078 |
| TICAM2 isoform 2 (UniProt Q86XR7) | inactive: -0.008 | inactive: 0.05 | inactive: 0.247 | inactive: 0.045 | inactive: -0.001 | inactive: 0.016 | inactive: 0.055 | inactive: -0.007 | inactive: 0.029 | inactive: 0.074 | inactive: -0.002 | inactive: 0.02 | inactive: 0.059 | inactive: 0.028 | inactive: -0.019 | inactive: 0.002 | inactive: -0.111 | inactive: -0.054 | inactive: -0.011 | inactive: -0.011 |
| TBCA (UniProt O75347) | inactive: 0.027 | inactive: -0.01 | inactive: 0.039 | inactive: -0.015 | inactive: -0.03 | inactive: -0.003 | inactive: -0.026 | inactive: 0.018 | inactive: 0.082 | inactive: 0.072 | inactive: 0.023 | inactive: 0 | inactive: 0.023 | inactive: -0.038 | inactive: 0.031 | inactive: 0.064 | inactive: 0.014 | inactive: -0.047 | inactive: 0.032 | inactive: -0.046 |
| TFRC (UniProt P02786) | inactive: 0.002 | inactive: 0.017 | inactive: 0.022 | inactive: 0.006 | inactive: 0.037 | inactive: 0.027 | inactive: 0.023 | inactive: -0.011 | inactive: 0.006 | inactive: 0.055 | inactive: 0.058 | inactive: 0.026 | inactive: -0.023 | inactive: -0.005 | inactive: 0.001 | inactive: -0.032 | inactive: -0.005 | inactive: -0.02 | – | inactive: -0.03 |
| TBC1D22A (UniProt Q8WUA7) | inactive: 0.005 | inactive: 0.009 | inactive: 0.013 | inactive: 0.03 | inactive: -0.015 | inactive: 0.04 | inactive: 0.006 | inactive: -0.017 | inactive: 0.009 | inactive: 0.044 | inactive: -0.019 | inactive: 0.013 | inactive: -0.025 | inactive: -0.025 | inactive: -0.003 | inactive: -0.003 | inactive: -0.024 | inactive: -0.071 | inactive: 0 | inactive: -0.013 |
| TFB2M (UniProt Q9H5Q4) | inactive: 0.007 | inactive: 0.094 | inactive: 0.037 | inactive: -0.043 | inactive: 0.016 | inactive: 0.019 | inactive: -0.022 | inactive: -0.019 | inactive: 0.002 | inactive: 0.007 | inactive: 0.037 | inactive: -0.029 | inactive: -0.013 | inactive: -0.085 | inactive: -0.136 | inactive: -0.08 | inactive: 0.02 | inactive: 0.012 | – | inactive: 0.005 |
| TBL2 (UniProt Q9Y4P3) | inactive: -0.093 | inactive: 0.022 | inactive: -0.354 | inactive: 0.01 | inactive: -0.013 | inactive: -0.011 | inactive: -0.029 | inactive: 0.021 | inactive: -0.067 | inactive: -0.112 | inactive: -0.115 | inactive: -0.043 | inactive: 0.009 | inactive: 0.183 | inactive: 0.069 | inactive: -0.053 | inactive: 0.157 | inactive: 0.282 | inactive: 0.016 | inactive: 0.106 |
| THBS4 (UniProt P35443) | inactive: -0.218 | inactive: -0.23 | inactive: 0.029 | inactive: -0.106 | inactive: 0.126 | inactive: 0.011 | inactive: 0.036 | inactive: -0.22 | inactive: 0.063 | inactive: 0.154 | inactive: 0.022 | inactive: 0.163 | inactive: 0.059 | inactive: -0.046 | inactive: 0.204 | inactive: 0.546 | inactive: 0.086 | inactive: -0.054 | inactive: 0.075 | inactive: -0.241 |
| THOC3 (UniProt Q96J01) | inactive: -0.042 | inactive: 0.07 | inactive: 0.015 | inactive: 0.025 | inactive: -0.008 | inactive: 0.014 | inactive: -0.03 | inactive: 0.021 | inactive: -0.011 | inactive: -0.001 | inactive: 0.019 | inactive: 0.02 | inactive: -0.006 | inactive: -0.022 | inactive: 0 | inactive: 0.032 | inactive: 0.02 | inactive: -0.013 | inactive: 0 | inactive: -0.034 |
| TGS1 (UniProt Q96RS0) | inactive: 0.007 | inactive: 0.084 | inactive: 0.006 | inactive: -0.005 | inactive: 0.099 | inactive: -0.063 | inactive: -0.03 | inactive: -0.028 | inactive: -0.235 | inactive: -0.026 | inactive: -0.103 | inactive: -0.084 | inactive: -0.12 | inactive: 0.009 | inactive: 0.07 | inactive: -0.214 | inactive: -0.029 | inactive: 0.297 | inactive: -0.028 | inactive: 0.011 |
| THADA (UniProt Q6YHU6) | inactive: 0.039 | inactive: 0.068 | inactive: 0.03 | inactive: 0.035 | inactive: 0.071 | inactive: 0.007 | inactive: 0.029 | inactive: -0.002 | inactive: -0.011 | inactive: -0.006 | inactive: 0.007 | inactive: -0.026 | inactive: -0.062 | inactive: 0.053 | inactive: -0.166 | inactive: -0.225 | inactive: -0.071 | inactive: 0.016 | – | inactive: -0.047 |
| THUMPD2 (UniProt Q9BTF0) | inactive: -0.006 | inactive: 0.018 | inactive: -0.04 | inactive: 0.034 | inactive: -0.04 | inactive: 0.003 | inactive: 0.019 | inactive: -0.044 | inactive: 0.012 | inactive: 0.021 | inactive: -0.029 | inactive: 0.096 | inactive: 0.023 | inactive: -0.002 | inactive: 0.057 | inactive: 0.072 | inactive: -0.009 | inactive: -0.007 | inactive: -0.119 | inactive: 0.065 |
| TGFB1 (UniProt P01137) | inactive: -0.038 | inactive: 0.012 | inactive: 0.055 | inactive: 0.028 | inactive: 0.044 | inactive: 0.015 | inactive: 0.002 | inactive: -0.005 | inactive: -0.005 | inactive: 0.008 | inactive: 0 | inactive: 0.01 | inactive: 0.025 | inactive: -0.015 | inactive: -0.006 | inactive: 0.004 | inactive: 0.068 | inactive: 0 | inactive: 0.001 | inactive: -0.02 |
| TIMM17A (UniProt Q99595) | inactive: -0.01 | inactive: -0.018 | inactive: 0.1 | inactive: 0.014 | inactive: -0.158 | inactive: 0.015 | inactive: -0.014 | inactive: 0.021 | inactive: -0.019 | inactive: 0.051 | inactive: 0.071 | inactive: 0.029 | inactive: -0.02 | inactive: -0.038 | inactive: 0.02 | inactive: 0.055 | inactive: 0.012 | inactive: 0.002 | inactive: 0.011 | inactive: -0.163 |
| THOP1 (UniProt P52888) | inactive: 0.008 | inactive: -0.008 | inactive: 0.031 | inactive: 0.003 | inactive: -0.017 | inactive: 0.037 | inactive: 0.039 | inactive: -0.024 | inactive: -0.018 | inactive: 0.064 | inactive: 0.026 | inactive: 0.023 | inactive: 0.005 | inactive: -0.004 | inactive: -0.021 | inactive: 0.101 | inactive: -0.053 | inactive: -0.061 | inactive: 0.032 | inactive: -0.001 |
| TCOF1 isoform 4 (UniProt Q13428) | inactive: 0.035 | inactive: -0.005 | inactive: -0.005 | inactive: -0.008 | inactive: -0.002 | inactive: 0.014 | inactive: -0.024 | inactive: -0.001 | inactive: -0.043 | inactive: -0.107 | inactive: -0.009 | inactive: -0.034 | inactive: -0.13 | inactive: 0.028 | inactive: 0.023 | inactive: -0.042 | inactive: -0.083 | inactive: 0.024 | – | active: -0.664 |

Single entries from the entries so far.
In log2 fold change [4], TBC1D22A (UniProt Q8WUA7) is entered as inactive: 0.03
In log2 fold change [19], TBL2 (UniProt Q9Y4P3) is entered as inactive: 0.016
